Experimental data: patent US8518466B2 (Shenzhen Hazardous Waste Treatment Station Ltd., priority 2008, dated 2013)
For at least one compound, name, drawing or mass did not settle the structure.

System: weaned piglet
[1] = 0.3 and 0.5 mg/kg in diet, control: 150 mg/kg basic copper chloride without selenium

O=[Se](O)O [sodium selenite]
daily gain compared with control group [1]: significantly increased
feed conversion ratio compared with control group [1]: significantly increased
piglet growth performance, 0.3 mg/kg versus 0.5 mg/kg (compared between the two concentrations within testing groups, 28 days formal test): not significant difference
whole blood GSH-Px activity compared with control group (piglets, 0.3 and 0.5 mg/kg in diet): significantly higher
SOD activity compared with control group (piglets, whole blood, 0.3 and 0.5 mg/kg in diet): significantly higher
